# Experimental data: patent US8703815B2, “Small molecules that covalently modify transthyretin” (The Scripps Research Institute, priority 2009, dated 2014)
# Some results were stated once for a whole list of compounds, not compound by compound.
# Target: T1, K15A-TTR (Homo sapiens, UniProt P02766, K35A)
# T1 construct: composed of 127-residue β-sheet-rich subunits; made in house
# Test: RP-HPLC analysis of reaction with K15A-TTR homotetramer
# Format: binding
# Conditions: compound 7.2 μM, 18 hours
# Source text: A strictly analogous study performed with the K15A homotetrameric TTR mutant confirmed that K15 was essential for the observed chemoselective reaction between TTR and Compounds […] (FIG. 1A, bottom trace).
# The ability of compounds A1 and A2, auxochromic analogs of previously discussed stilbenes [Klabunde et al., Nat. Struct. Biol. 2000, 7, 312-321; Connelly et al., Curr. Opin. Struc. Biol. 2010, 20, 54-62; Johnson et al., J. Med. Chem. 2008, 51, 6348-6358; Choi et al., J. Am. Chem. Soc. 2010, 132, 1359-1370; Choi et al., Nat. Chem. Biol. 2010, 6, 133-139; and Baures et al., Bioorg. Med. Chem. 1998, 6, 1389-1401] to form a chemoselective amide bond with the K15 residue of TTR was assessed by reverse-phase-HPLC and liquid chromatography-mass spectrometry analysis. […]
# Recombinant WT-TTR was expressed as described previously [Lashuel et al., Biochemistry 38:13560-13573 (1999)]. […] Reverse phase high performance liquid chromatography (RP-HPLC) was performed on a Water 600 E multi-solvent delivery system, using a Waters 486 tunable absorbance detector, a 717 autosampler, and a ThermoHypersil Keystone Betabasic-18 column μ150 Å pore size, 3 μm particle size, and mobile phase A; 0.1% TFA in 95% H2O+5% CH3CN and mobile phase B, 0.1% TFA in 95% CH3CN+5% H2O). […]
compound,measurement,value
"O=C(Sc1ccccc1)c1cccc(/C=C/c2cc(Br)c(O)c(Br)c2)c1 [Compound 1, (E)-S-phenyl 3-(3,5-dibromo-4-hydroxystyryl)benzothioate]",% reaction with K15A,< 5%
